Some entries share one result that the patent states for a list of compounds.
B1: IL-29: human IL-29 cytokine polypeptide, previous designation zcyto21 (e.g. SEQ ID NO:20, CHO-derived) (protein, listed as Homo sapiens)
chain: MAAAWTVVLVTLVLGLAVAGPVPTSKPTTTGKGCHIGRFKSLSPQELASFKKARDALEESLKLKNWSCSSPVFPGNWDLRLLQVRERPVALEAELALTLKVLEAAAGPALEDVLDQPLHTLHHILSQLQACIQPQPTAGPRPRGRLHHWLHRLQEAPKKESAGCLEASVTFNLFRLLTRDLKYVADGNLCLRTSTHPEST
modifications: SIGNAL (1)...(19)
B2: IL-28A: human IL-28A cytokine polypeptide, previous designation zcyto20 (e.g. SEQ ID NO:18, CHO-derived) (protein, listed as Homo sapiens)
chain: MKLDMTGDCTPVLVLMAAVLTVTGAVPVARLHGALPDARGCHIAQFKSLSPQELQAFKRAKDALEESLLLKDCRCHSRLFPRTWDLRQLQVRERPMALEAELALTLKVLEATADTDPALVDVLDQPLHTLHHILSQFRACIQPQPTAGPRTRGRLHHWLYRLQEAPKKESPGCLEASVTFNLFRLLTRDLNCVASGDLCV
modifications: SIGNAL (1)...(25)

Tests used:
HBV = HBV replication in WT10 cells (TaqMan PCR extracellular HBV DNA); format: cell-based, hepatitis B virus
HSV-2 = HSV-2 cytopathic effect inhibition assay in Vero cells; format: cell-based, Herpes Simplex Virus-2; settings: HSV-2 CPE

| Molecule | IC50 (HepB viral replication) (HBV) | IC50 (inhibition of cell death) (HSV-2) |
| --- | --- | --- |
| B1 | < 0.032 mg/L | > 10 mg/L |
| B2 |  | > 10 mg/L |

— patent publication US8816053B2 (ZymoGenetics, Inc., priority 2004, dated 2014)
